According to article PMC5430744 (Scientific Reports, 2017):
Results are given in words; binding and its absence hold for the method and conditions named. Binding seen in cells or lysates may run through a third protein. Binding calls can cover weak binding; strength is not graded here.

Protein sequences, listed by entry. Tags and fused reporters are not part of them. Lines headed by an entry give the natural chain unless they say otherwise; changes in a name come on top.
UniProt D1AWD9: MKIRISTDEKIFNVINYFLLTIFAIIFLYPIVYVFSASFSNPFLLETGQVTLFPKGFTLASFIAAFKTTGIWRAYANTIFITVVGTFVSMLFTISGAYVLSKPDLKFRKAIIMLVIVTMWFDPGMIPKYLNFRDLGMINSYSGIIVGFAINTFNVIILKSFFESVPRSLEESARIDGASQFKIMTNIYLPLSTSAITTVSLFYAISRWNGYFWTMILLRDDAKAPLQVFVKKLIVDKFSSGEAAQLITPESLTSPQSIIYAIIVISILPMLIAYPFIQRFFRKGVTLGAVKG
UniProt D1AWD8: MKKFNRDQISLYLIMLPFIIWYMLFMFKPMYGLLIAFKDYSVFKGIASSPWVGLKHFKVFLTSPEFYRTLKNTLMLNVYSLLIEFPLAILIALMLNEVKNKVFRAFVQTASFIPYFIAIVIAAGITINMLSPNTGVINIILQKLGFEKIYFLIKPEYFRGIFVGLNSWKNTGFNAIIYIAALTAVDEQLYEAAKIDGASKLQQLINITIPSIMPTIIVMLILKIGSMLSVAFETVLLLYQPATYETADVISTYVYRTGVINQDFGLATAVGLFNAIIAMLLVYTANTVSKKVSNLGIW
UniProt D1AWD7: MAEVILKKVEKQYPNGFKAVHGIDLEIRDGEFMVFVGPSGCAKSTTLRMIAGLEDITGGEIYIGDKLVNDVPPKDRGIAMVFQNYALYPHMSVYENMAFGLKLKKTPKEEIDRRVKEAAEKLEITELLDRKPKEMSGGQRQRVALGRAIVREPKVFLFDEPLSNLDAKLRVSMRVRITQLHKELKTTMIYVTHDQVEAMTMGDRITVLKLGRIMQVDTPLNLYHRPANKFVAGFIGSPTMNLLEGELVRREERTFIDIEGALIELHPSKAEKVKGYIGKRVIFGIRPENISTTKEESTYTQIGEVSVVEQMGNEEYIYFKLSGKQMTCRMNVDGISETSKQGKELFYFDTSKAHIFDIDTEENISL

Target: Smon0122(10xHis), putative aldouronate transport system (permease protein) (Streptobacillus moniliformis) (UniProt D1AWD9)
Test: co-purification on Ni-NTA + SEC; operon smon0120-0121-0122 co-expressed in E. coli; membranes solubilised with DDM; Ni-NTA by the 10xHis on Smon0122, then HiLoad 16/60 Superdex 200 pg; three bands on SDS-PAGE; eluted as a tetramer (theoretical about 150 kDa, eluted slightly over 158 kDa, detergent present)

| binding | Substance |
| --- | --- |
| binds | Smon0121, putative aldouronate transport system (permease protein) (from UniProt D1AWD8) |
| binds | Smon0120, multiple sugar transport system (ATP-binding protein) (from UniProt D1AWD7) |
